± gives the standard deviation of the averaged measurements. The list shows a part of the results, in another mix than the full data.
Compound: Nc1ncnc2c1ncn2[C@@H]1O[C@H](COP(=O)(O)OP(=O)(O)OP(=O)(O)O)[C@@H](O)[C@H]1O [adenosine triphosphate]
Test: NP40-soluble protein abundance relative to vehicle (solubility fold change) (ratio); higher = more soluble protein in presence of ATP
Procedure, shortened: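 Each value is a fold change relative to the detergent-processed vehicle, calculated per replicate from vsn-normalised intensities. Jurkat crude lysate received eight concentrations (0.1 to 10 mM) for 10 min at room temperature and 3 min at 37 °C, then was solubilised in 0.8% NP40 with benzonase (60 min, 4 °C). The ultracentrifuged supernatant was TMT-labelled and run by LC-MS/MS in three independent experiments.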

Chains of the proteins cited; added tags and fusions are not shown. Lines headed by an entry give the natural chain unless they say otherwise; changes in a name come on top.
UniProt Q92889: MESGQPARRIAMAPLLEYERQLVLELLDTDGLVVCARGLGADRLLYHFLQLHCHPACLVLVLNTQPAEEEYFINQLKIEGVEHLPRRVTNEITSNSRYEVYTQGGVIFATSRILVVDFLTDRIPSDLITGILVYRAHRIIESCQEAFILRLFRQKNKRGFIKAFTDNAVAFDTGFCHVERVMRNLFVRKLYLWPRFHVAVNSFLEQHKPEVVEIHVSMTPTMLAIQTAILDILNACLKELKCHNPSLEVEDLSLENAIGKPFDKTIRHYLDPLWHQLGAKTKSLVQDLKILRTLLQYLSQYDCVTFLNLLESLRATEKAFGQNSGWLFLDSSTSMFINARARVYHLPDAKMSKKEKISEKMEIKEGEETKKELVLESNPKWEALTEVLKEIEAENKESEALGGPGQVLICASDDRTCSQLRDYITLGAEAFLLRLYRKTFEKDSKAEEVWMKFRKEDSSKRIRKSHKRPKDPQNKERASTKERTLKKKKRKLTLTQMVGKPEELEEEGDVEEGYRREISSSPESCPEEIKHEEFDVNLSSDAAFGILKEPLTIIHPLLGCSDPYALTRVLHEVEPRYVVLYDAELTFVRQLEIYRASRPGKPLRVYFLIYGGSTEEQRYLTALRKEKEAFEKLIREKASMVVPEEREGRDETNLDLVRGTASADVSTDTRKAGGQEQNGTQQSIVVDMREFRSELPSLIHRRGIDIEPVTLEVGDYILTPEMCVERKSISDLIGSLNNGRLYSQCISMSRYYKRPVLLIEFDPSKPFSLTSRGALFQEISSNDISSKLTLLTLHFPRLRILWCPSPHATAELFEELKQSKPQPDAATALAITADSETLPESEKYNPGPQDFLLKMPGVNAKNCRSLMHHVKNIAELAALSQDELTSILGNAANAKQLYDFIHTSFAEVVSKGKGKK
UniProt Q92619: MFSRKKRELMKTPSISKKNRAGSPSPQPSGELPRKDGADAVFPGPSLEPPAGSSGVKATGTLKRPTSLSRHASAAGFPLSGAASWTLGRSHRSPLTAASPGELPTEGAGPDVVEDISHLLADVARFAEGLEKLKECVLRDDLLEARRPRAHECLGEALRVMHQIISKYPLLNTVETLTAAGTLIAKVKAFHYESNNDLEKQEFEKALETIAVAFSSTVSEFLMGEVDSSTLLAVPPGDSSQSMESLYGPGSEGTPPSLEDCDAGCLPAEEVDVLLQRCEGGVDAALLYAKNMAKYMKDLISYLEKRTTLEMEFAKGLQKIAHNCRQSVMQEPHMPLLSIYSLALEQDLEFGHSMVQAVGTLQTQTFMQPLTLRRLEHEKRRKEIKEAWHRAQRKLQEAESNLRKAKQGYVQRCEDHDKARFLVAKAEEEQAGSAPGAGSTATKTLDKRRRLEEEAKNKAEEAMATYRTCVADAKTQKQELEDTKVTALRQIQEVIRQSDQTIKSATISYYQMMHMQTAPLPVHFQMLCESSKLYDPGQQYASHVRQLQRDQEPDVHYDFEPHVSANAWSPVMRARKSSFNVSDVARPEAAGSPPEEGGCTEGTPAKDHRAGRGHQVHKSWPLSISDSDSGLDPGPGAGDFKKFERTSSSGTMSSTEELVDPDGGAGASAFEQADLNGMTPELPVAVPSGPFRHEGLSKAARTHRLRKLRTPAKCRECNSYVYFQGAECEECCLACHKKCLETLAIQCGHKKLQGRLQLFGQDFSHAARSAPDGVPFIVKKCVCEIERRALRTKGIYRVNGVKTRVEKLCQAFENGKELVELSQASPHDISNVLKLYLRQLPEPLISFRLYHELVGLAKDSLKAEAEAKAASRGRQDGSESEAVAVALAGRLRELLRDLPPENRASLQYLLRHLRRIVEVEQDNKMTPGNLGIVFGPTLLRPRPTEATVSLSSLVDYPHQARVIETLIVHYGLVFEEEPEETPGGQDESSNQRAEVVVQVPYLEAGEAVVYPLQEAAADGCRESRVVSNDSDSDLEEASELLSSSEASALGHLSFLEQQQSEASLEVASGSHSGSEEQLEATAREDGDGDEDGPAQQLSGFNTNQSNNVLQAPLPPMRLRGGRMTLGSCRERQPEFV
UniProt Q8TDX7: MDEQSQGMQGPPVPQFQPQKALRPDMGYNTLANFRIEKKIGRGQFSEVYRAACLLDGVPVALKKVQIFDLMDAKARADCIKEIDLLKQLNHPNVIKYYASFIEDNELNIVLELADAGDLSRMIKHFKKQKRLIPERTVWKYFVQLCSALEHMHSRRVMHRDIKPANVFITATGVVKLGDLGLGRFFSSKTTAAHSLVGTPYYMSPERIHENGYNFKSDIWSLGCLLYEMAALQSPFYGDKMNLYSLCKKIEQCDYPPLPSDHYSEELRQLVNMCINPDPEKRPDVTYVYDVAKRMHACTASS
UniProt Q8TEA7: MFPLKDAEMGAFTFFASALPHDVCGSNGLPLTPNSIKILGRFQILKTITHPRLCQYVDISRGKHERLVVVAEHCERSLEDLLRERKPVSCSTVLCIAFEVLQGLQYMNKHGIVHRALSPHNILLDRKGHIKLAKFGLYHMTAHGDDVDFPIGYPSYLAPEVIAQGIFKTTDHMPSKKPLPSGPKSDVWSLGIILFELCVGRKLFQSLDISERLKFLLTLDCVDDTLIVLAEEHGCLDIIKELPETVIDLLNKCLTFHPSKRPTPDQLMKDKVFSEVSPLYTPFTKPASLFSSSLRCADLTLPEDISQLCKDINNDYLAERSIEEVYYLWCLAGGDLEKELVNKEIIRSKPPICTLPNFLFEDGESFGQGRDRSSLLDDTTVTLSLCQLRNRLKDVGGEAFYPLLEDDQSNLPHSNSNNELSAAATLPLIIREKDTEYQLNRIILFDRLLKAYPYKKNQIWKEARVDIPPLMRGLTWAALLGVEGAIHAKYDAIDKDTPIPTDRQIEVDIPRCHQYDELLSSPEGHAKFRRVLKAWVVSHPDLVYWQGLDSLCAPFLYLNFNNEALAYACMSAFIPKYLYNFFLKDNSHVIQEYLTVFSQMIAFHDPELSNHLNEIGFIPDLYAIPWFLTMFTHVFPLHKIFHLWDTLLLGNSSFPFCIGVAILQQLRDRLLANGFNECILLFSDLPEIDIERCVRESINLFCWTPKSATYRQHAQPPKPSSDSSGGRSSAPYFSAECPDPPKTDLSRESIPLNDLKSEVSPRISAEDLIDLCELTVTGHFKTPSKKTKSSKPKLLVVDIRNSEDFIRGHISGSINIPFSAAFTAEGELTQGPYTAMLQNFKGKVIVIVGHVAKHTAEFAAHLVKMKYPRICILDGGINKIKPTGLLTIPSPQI
UniProt Q92769, whole entry: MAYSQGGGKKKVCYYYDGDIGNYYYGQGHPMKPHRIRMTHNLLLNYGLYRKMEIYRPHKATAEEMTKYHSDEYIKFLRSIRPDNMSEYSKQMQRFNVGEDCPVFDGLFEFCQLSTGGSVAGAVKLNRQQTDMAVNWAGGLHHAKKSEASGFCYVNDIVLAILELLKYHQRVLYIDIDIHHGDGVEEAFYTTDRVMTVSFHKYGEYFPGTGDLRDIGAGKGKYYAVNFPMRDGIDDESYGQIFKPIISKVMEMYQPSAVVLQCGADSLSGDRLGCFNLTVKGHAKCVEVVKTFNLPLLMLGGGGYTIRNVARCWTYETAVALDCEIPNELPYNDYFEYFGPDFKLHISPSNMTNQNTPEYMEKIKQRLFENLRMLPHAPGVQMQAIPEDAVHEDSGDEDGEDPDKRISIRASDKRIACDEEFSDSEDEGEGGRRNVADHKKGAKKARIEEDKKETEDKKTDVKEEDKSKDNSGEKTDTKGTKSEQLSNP
UniProt Q969X5: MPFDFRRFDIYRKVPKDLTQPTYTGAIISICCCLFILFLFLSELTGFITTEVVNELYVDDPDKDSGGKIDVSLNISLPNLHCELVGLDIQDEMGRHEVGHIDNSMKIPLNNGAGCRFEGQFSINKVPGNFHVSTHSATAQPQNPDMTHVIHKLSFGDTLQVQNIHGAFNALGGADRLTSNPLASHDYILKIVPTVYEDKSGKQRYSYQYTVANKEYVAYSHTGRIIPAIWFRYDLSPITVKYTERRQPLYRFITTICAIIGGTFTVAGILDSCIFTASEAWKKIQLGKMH
UniProt Q92784, whole entry: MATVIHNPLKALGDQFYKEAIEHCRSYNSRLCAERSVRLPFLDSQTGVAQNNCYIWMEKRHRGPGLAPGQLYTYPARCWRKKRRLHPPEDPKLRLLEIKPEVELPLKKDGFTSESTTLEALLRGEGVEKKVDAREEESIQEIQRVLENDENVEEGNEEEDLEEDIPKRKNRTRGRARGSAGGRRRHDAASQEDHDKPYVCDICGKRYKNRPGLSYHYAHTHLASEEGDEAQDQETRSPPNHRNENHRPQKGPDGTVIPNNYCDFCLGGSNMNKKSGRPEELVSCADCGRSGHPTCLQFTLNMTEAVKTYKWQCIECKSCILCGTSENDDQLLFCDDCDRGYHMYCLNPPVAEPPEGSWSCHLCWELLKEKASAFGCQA
UniProt Q969E2: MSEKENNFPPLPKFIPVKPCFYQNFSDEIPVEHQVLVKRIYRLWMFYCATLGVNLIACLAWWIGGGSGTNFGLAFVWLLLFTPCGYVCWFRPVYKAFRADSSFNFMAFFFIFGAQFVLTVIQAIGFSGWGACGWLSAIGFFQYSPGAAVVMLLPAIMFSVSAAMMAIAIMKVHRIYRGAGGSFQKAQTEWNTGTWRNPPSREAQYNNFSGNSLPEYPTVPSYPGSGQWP
UniProt Q92575: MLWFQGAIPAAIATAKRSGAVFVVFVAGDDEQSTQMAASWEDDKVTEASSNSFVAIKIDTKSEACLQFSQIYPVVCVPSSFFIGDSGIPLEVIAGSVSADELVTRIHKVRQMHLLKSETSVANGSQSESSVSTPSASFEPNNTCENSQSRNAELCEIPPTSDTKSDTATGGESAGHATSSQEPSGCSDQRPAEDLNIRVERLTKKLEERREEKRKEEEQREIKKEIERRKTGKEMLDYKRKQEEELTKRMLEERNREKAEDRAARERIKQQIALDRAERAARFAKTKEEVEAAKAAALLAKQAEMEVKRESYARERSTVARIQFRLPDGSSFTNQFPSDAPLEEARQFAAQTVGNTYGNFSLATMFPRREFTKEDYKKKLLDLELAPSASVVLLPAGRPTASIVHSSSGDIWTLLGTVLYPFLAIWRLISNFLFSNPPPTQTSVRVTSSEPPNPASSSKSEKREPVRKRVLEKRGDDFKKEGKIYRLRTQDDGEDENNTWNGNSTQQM
UniProt Q96B96: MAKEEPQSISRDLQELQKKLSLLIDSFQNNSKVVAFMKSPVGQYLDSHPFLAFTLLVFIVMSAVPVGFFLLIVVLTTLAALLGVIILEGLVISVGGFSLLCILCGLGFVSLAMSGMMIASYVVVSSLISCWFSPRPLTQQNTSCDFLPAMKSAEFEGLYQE
UniProt Q8TF46, whole entry: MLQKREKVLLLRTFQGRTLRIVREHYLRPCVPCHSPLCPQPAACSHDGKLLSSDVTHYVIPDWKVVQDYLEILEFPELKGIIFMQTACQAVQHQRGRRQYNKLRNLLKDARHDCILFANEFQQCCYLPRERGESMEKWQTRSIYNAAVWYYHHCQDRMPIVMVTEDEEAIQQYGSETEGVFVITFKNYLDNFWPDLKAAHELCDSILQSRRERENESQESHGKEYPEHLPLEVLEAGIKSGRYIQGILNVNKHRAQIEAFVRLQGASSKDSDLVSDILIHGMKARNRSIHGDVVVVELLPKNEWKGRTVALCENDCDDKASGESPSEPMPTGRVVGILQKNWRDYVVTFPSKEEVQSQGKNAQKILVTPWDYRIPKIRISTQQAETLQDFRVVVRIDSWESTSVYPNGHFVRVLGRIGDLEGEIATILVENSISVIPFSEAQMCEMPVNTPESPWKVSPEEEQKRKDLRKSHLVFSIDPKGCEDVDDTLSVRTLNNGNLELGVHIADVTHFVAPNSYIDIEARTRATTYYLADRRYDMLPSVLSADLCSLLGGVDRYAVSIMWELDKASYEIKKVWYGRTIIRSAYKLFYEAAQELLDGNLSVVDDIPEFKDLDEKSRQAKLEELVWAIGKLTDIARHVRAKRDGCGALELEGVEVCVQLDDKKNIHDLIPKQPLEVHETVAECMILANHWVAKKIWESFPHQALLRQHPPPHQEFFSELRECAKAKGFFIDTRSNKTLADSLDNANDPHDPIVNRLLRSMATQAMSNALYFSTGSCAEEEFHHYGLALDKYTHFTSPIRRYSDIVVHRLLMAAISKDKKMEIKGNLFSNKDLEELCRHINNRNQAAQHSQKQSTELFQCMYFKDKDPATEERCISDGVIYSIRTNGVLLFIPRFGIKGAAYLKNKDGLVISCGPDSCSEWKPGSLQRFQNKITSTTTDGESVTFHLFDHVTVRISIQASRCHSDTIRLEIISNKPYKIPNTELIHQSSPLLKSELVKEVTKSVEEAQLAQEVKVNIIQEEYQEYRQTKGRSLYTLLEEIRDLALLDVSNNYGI
UniProt Q96A57: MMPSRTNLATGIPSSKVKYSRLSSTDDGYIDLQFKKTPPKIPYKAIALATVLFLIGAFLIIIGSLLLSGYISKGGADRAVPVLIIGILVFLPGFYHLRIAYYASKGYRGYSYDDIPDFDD

Target	NP40-soluble protein abundance (concentration: 1mM)	NP40-soluble protein abundance (concentration: 2mM)	NP40-soluble protein abundance (concentration: 4mM)	NP40-soluble protein abundance (concentration: 6mM)	NP40-soluble protein abundance (concentration: 8mM)	NP40-soluble protein abundance (concentration: 10mM)
ITFG2 (UniProt Q969R8)	1 ± 0.035	0.956 ± 0.048	0.994 ± 0.018	0.926 ± 0.09	0.946 ± 0.035	0.962 ± 0.023
UniProt Q92636 and related entries	1.08 ± 0.15	1.04 ± 0.12	1.05 ± 0.088	0.959 ± 0.14	1.07 ± 0.051	1.03 ± 0.067
UniProt Q8TC07 and related entries	0.989 ± 0.09	0.989 ± 0.058	0.993 ± 0.054	0.954 ± 0.072	1 ± 0.064	0.986 ± 0.051
UniProt Q8TDD1 and related entries	1.09 ± 0.04	1.15 ± 0.019	1.19 ± 0.016	1.24 ± 0.07	1.32 ± 0.021	1.42 ± 0.091
DTD1 (UniProt Q8TEA8)	0.958 ± 0.11	0.924 ± 0.081	0.913 ± 0.014	0.877 ± 0.092	0.903 ± 0.045	0.935 ± 0.017
UniProt Q92783 and related entries	0.951 ± 0.033	0.964 ± 0.0032	0.913 ± 0.013	0.9663 ± 0.0095	0.915 ± 0.013	0.902 ± 0.022
SMARCC1 (UniProt Q92922)	1.03 ± 0.079	1 ± 0.071	1 ± 0.078	1.08 ± 0.14	1.02 ± 0.077	1.02 ± 0.058
EXOC4 (UniProt Q96A65)	1.01 ± 0.02	0.989 ± 0.029	0.99 ± 0.024	0.976 ± 0.014	0.999 ± 0.041	0.995 ± 0.062
UniProt Q8TEL6 and related entries	1.06 ± 0.15	1.15 ± 0.2	0.976 ± 0.22	1.02 ± 0.21	0.905 ± 0.061	1.02 ± 0.14
RAB24 (UniProt Q969Q5)	1.03 ± 0.051	1.02 ± 0.063	1 ± 0.055	1.02 ± 0.11	1.01 ± 0.041	0.994 ± 0.056
UniProt Q969S9 and related entries	1.03 ± 0.067	1.01 ± 0.04	1.04 ± 0.07	0.973 ± 0.054	1.01 ± 0.043	1.01 ± 0.046
UniProt Q8TCE6 and related entries	1.01 ± 0.041	0.998 ± 0.037	1.01 ± 0.051	1 ± 0.035	0.9792 ± 0.0079	0.998 ± 0.078
ERCC4 (UniProt Q92889)	1.03 ± 0.053	1.05 ± 0.076	1.03 ± 0.083	0.997 ± 0.084	1.04 ± 0.029	1.01 ± 0.043
UniProt Q92619	1.06 ± 0.021	1.067 ± 0.0063	1.03 ± 0.013	1.079 ± 0.0064	1.03 ± 0.02	1.07 ± 0.031
PRPF31 (UniProt Q8WWY3)	1.07 ± 0.055	1.08 ± 0.045	1.05 ± 0.03	1.15 ± 0.048	1.09 ± 0.027	1.12 ± 0.018
UniProt Q8TCA0 and related entries	0.9485 ± 0.0055	0.959 ± 0.018	0.966 ± 0.042	0.932 ± 0.054	0.924 ± 0.0096	0.931 ± 0.039
DDB2 (UniProt Q92466)	0.963 ± 0.066	0.996 ± 0.074	0.97 ± 0.077	0.92 ± 0.063	1.01 ± 0.061	0.998 ± 0.041
UniProt Q8TD26 and related entries	1.06 ± 0.061	1.13 ± 0.022	1.13 ± 0.053	1.11 ± 0.11	1.11 ± 0.016	1.11 ± 0.091
STYX (UniProt Q8WUJ0)	1.1 ± 0.15	1.05 ± 0.16	1.02 ± 0.1	1.08 ± 0.12	0.962 ± 0.08	0.973 ± 0.11
UniProt Q93015 and related entries	0.962 ± 0.05	0.934 ± 0.029	1.1 ± 0.059	0.958 ± 0.0097	0.852 ± 0.067	0.87 ± 0.029

Target	NP40-soluble protein abundance (concentration: 1mM)	NP40-soluble protein abundance (concentration: 2mM)	NP40-soluble protein abundance (concentration: 4mM)	NP40-soluble protein abundance (concentration: 6mM)	NP40-soluble protein abundance (concentration: 8mM)	NP40-soluble protein abundance (concentration: 10mM)
C15orf40 (UniProt Q8WUR7)	0.909 ± 0.086	0.955 ± 0.077	0.959 ± 0.052	0.978 ± 0.1	0.896 ± 0.034	0.9 ± 0.086
NEK7 (UniProt Q8TDX7)	1.05 ± 0.036	1.02 ± 0.033	0.9969 ± 0.0076	0.98 ± 0.071	0.996 ± 0.016	0.998 ± 0.024
UniProt Q8TEW0 and related entries	0.988 ± 0.11	1.02 ± 0.11	1.03 ± 0.1	1.04 ± 0.11	1.03 ± 0.13	1.09 ± 0.15
UniProt Q8TBB5 and related entries	1 ± 0.036	1.01 ± 0.014	0.987 ± 0.024	1.02 ± 0.029	0.9889 ± 0.0054	1.017 ± 0.0077
UniProt Q8TEA7 and related entries	0.976 ± 0.1	0.945 ± 0.032	0.874 ± 0.055	0.801 ± 0.11	0.912 ± 0.015	0.891 ± 0.06
PPP1R13L (UniProt Q8WUF5)	1.04 ± 0.054	0.982 ± 0.032	0.9866 ± 0.0095	0.993 ± 0.075	0.908 ± 0.014	0.99 ± 0.022
ZNF622 (UniProt Q969S3)	1.05 ± 0.088	1.07 ± 0.052	1.09 ± 0.057	1.12 ± 0.062	1.09 ± 0.053	1.11 ± 0.043
UniProt Q8WUY1	1 ± 0.05	1.01 ± 0.041	1.02 ± 0.032	0.963 ± 0.062	1.04 ± 0.04	1.06 ± 0.036
CREBBP (UniProt Q92793)	0.971 ± 0.028	1.03 ± 0.052	0.996 ± 0.037	1.01 ± 0.048	0.993 ± 0.054	1.02 ± 0.018
PYROXD1 (UniProt Q8WU10)	1.03 ± 0.073	1.06 ± 0.064	1.06 ± 0.12	0.963 ± 0.1	0.989 ± 0.086	1.02 ± 0.038
UniProt Q8TCY9	1.04 ± 0.084	0.976 ± 0.086	1.04 ± 0.07	0.998 ± 0.1	0.974 ± 0.071	0.901 ± 0.16
MUL1 (UniProt Q969V5)	1.03 ± 0.039	1.01 ± 0.02	1.02 ± 0.033	1.02 ± 0.036	1.03 ± 0.043	1.04 ± 0.035
HDAC2 (UniProt Q92769)	1.03 ± 0.014	1.01 ± 0.026	0.984 ± 0.014	0.985 ± 0.082	1.04 ± 0.056	1.04 ± 0.072
UniProt Q92538 and related entries	0.976 ± 0.045	0.944 ± 0.018	0.93 ± 0.028	0.929 ± 0.0095	0.937 ± 0.037	0.923 ± 0.0097
LPP (UniProt Q93052)	0.989 ± 0.077	0.964 ± 0.073	0.972 ± 0.092	0.949 ± 0.05	0.927 ± 0.06	0.945 ± 0.05
UniProt Q92542 and related entries	0.944 ± 0.025	0.955 ± 0.011	0.94 ± 0.024	0.967 ± 0.02	0.928 ± 0.044	0.895 ± 0.075
ERGIC1 (UniProt Q969X5)	1.05 ± 0.12	0.998 ± 0.072	0.978 ± 0.039	0.949 ± 0.1	1.03 ± 0.05	1.02 ± 0.063
DPF3 (UniProt Q92784)	1.01 ± 0.067	1.06 ± 0.12	1.08 ± 0.096	1.09 ± 0.12	1.06 ± 0.12	1.03 ± 0.056
FAR1 (UniProt Q8WVX9)	1.05 ± 0.093	1.06 ± 0.042	1.11 ± 0.042	1.05 ± 0.096	1.2 ± 0.083	1.17 ± 0.012
UniProt Q8TBZ6	1.08 ± 0.045	1.08 ± 0.043	1.1 ± 0.031	1.18 ± 0.07	1.07 ± 0.03	1.09 ± 0.043

Given comma-delimited: entries from further up
Target,NP40-soluble protein abundance (concentration: 1mM),NP40-soluble protein abundance (concentration: 2mM),NP40-soluble protein abundance (concentration: 4mM),NP40-soluble protein abundance (concentration: 6mM),NP40-soluble protein abundance (concentration: 8mM),NP40-soluble protein abundance (concentration: 10mM)
UniProt Q92542 and related entries,0.944 ± 0.025,0.955 ± 0.011,0.94 ± 0.024,0.967 ± 0.02,0.928 ± 0.044,0.895 ± 0.075
ERGIC1 (UniProt Q969X5),1.05 ± 0.12,0.998 ± 0.072,0.978 ± 0.039,0.949 ± 0.1,1.03 ± 0.05,1.02 ± 0.063
DPF3 (UniProt Q92784),1.01 ± 0.067,1.06 ± 0.12,1.08 ± 0.096,1.09 ± 0.12,1.06 ± 0.12,1.03 ± 0.056
FAR1 (UniProt Q8WVX9),1.05 ± 0.093,1.06 ± 0.042,1.11 ± 0.042,1.05 ± 0.096,1.2 ± 0.083,1.17 ± 0.012
UniProt Q8TBZ6,1.08 ± 0.045,1.08 ± 0.043,1.1 ± 0.031,1.18 ± 0.07,1.07 ± 0.03,1.09 ± 0.043

Continued:

Target	NP40-soluble protein abundance (concentration: 1mM)	NP40-soluble protein abundance (concentration: 2mM)	NP40-soluble protein abundance (concentration: 4mM)	NP40-soluble protein abundance (concentration: 6mM)	NP40-soluble protein abundance (concentration: 8mM)	NP40-soluble protein abundance (concentration: 10mM)
UniProt Q92574 and related entries	1.01 ± 0.033	0.979 ± 0.029	1.02 ± 0.032	0.994 ± 0.027	0.939 ± 0.017	0.966 ± 0.065
UniProt Q8TE02 and related entries	1.01 ± 0.068	0.924 ± 0.053	0.965 ± 0.067	0.85 ± 0.12	1.03 ± 0.15	1.04 ± 0.065
UniProt Q8TBE0 and related entries	1.03 ± 0.035	0.991 ± 0.038	1.08 ± 0.02	1.1 ± 0.069	1.121 ± 0.0067	1.22 ± 0.13
UniProt Q92616	1.04 ± 0.067	1.01 ± 0.043	0.993 ± 0.034	0.96 ± 0.031	0.996 ± 0.04	1.01 ± 0.047
UniProt Q969E2 and related entries	0.996 ± 0.013	1.01 ± 0.087	1.12 ± 0.064	1.03 ± 0.082	1.01 ± 0.11	1 ± 0.071
UniProt Q8WVE0	0.965 ± 0.048	0.986 ± 0.074	0.981 ± 0.02	1.02 ± 0.093	1.03 ± 0.15	0.944 ± 0.029
UniProt Q96BD8	0.936 ± 0.062	0.931 ± 0.043	0.917 ± 0.045	0.974 ± 0.086	0.967 ± 0.029	0.909 ± 0.11
UniProt Q92900-2|Q92900	0.996 ± 0.021	1.01 ± 0.031	0.9872 ± 0.004	0.957 ± 0.06	0.997 ± 0.013	1 ± 0.023
UniProt Q93050 and related entries	1.03 ± 0.011	0.981 ± 0.018	0.981 ± 0.018	0.98 ± 0.098	0.983 ± 0.044	0.992 ± 0.06
UniProt Q92615	1.11 ± 0.065	1.13 ± 0.06	1.21 ± 0.045	1.22 ± 0.12	1.22 ± 0.079	1.29 ± 0.092
UBXN4 (UniProt Q92575)	0.97 ± 0.056	0.967 ± 0.035	0.965 ± 0.03	0.973 ± 0.021	0.958 ± 0.013	0.956 ± 0.024
UniProt Q96B96 and related entries	0.904 ± 0.04	0.915 ± 0.013	0.911 ± 0.031	0.882 ± 0.015	0.823 ± 0.027	0.936 ± 0.056
UniProt Q8TF46 and related entries	1 ± 0.032	0.982 ± 0.057	1 ± 0.072	0.973 ± 0.06	0.957 ± 0.054	0.967 ± 0.081
NTAN1 (UniProt Q96AB6)	1.08 ± 0.041	1.06 ± 0.069	1.08 ± 0.073	1.07 ± 0.1	1.14 ± 0.061	1.18 ± 0.15
UniProt Q96AJ9 and related entries	0.944 ± 0.066	0.932 ± 0.04	0.962 ± 0.022	1 ± 0.053	0.954 ± 0.015	0.897 ± 0.1
SORL1 (UniProt Q92673)	0.964 ± 0.031	0.971 ± 0.023	0.949 ± 0.028	0.968 ± 0.024	0.927 ± 0.046	0.935 ± 0.029
UniProt Q8TCZ2 and related entries	0.82 ± 0.044	0.856 ± 0.029	0.833 ± 0.049	0.835 ± 0.03	0.886 ± 0.059	0.816 ± 0.063
UniProt Q96A57 and related entries	0.707 ± 0.18	0.687 ± 0.23	0.663 ± 0.27	0.664 ± 0.25	0.677 ± 0.27	0.626 ± 0.25
TRUB1 (UniProt Q8WWH5)	1 ± 0.099	0.969 ± 0.03	1.02 ± 0.1	0.969 ± 0.051	0.992 ± 0.096	0.959 ± 0.04
RAB2B (UniProt Q8WUD1)	0.972 ± 0.072	0.997 ± 0.09	0.951 ± 0.051	0.956 ± 0.11	0.961 ± 0.029	0.971 ± 0.077

Source: the supplement of paper PMC6411743
